Experimental data reported in article PMC8881573, “Inhibition of SRP-dependent protein secretion by the bacterial alarmone (p)ppGpp” (Nature Communications, 2022).
No constants are given. Whether binding was seen depends on the method and setting. Some binding calls cover weakened binding; strength is not graded here.

Sequences of proteins named here, by UniProt entry; tags and fusion partners are left off.
UniProt P37105: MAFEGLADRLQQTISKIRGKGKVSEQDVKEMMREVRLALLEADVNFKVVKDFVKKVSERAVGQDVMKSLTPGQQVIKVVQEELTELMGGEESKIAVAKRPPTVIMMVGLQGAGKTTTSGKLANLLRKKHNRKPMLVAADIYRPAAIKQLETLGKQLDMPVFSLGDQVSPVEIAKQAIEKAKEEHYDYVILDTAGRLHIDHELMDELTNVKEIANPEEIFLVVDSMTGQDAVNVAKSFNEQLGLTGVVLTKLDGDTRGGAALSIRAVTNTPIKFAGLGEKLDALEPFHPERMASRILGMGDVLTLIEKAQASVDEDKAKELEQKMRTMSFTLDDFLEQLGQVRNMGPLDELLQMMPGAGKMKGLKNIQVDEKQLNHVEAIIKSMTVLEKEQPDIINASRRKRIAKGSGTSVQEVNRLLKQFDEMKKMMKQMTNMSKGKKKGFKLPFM

Biological target: MifM nascent chain of the MifM-stalled RNC (B. subtilis) (UniProt Q7WY64)
Test: cryo-EM structure; (Bs)SRP pre-incubated with pppGpp, tenfold molar excess over MifM-stalled RNCs, 10 min at room temperature; both purified

- binding: binds
Substance: recombinant (Bs)SRP (Ffh and 6S RNA) (from UniProt P37105 1-446)
